Taken from: PubChem BioAssay AID1224829 (NIAID, 2016)

Aim: 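Follow-up of TLR4-NF-kappaB regulators using six separate siRNAs for each gene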 (follow-up of hits)
Cell system: mouse RAW264.7 G9 macrophage reporter cells
Reagents: single siRNA against mouse genes, 100 nM
Duration: 2 days of siRNA knock-down, then 40 min of LPS before fixing
Conditions: LPS (Salmonella minnesota R595) at 10 ng/ml
Read-out: 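High-content images after 40 min LPS exposure; GFP-p65 nucleus to surrounding ring signal ratio, normalised to plate median and non-targeting control wells, expressed as z-score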
Direction: p65 translocation z-score and gene median z-score, per vendor: higher = more nuclear NF-kappaB p65 after LPS
Active means: 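An siRNA is called active when the mean z-score of its two replicates is above 2 or below -2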
Calls: active = changed p65 translocation (either direction); inactive = no clear change
Here is an unselected part of about 3,800 reagents tested. 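Calls cover raised and lowered translocation; gene median uses one vendor's three siRNAs; qiagen siRNAs acted more weakly than ambion siRNAs.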 Entries without a mark were called inactive. Reagent sequences are not shown.

target gene,PubChem SID,siRNA vendor or control pool,"p65 translocation z-score, replicate mean","p65 translocation z-score, replicate 1","p65 translocation z-score, replicate 2","gene median z-score, per vendor"
Bend6,SID315488934,ambion single siRNA,2.21 (active),2.21,2.21,-0.401
Bend6,SID315488935,ambion single siRNA,-0.401,0.38,-1.18,-0.401
Bend6,SID315488936,ambion single siRNA,-2.99 (active),-4.01,-1.97,-0.401
Bend6,SID315488937,qiagen single siRNA,2.2 (active),2.19,2.22,0.596
Bend6,SID315488938,qiagen single siRNA,0.596,0.533,0.658,0.596
Bend6,SID315488939,qiagen single siRNA,-0.48,-0.893,-0.0662,0.596
Atp1a3,SID315488385,ambion single siRNA,-2.99 (active),-3.32,-2.66,-2.99
Atp1a3,SID315488386,ambion single siRNA,-0.848,-1.12,-0.575,-2.99
Atp1a3,SID315488387,ambion single siRNA,-8.85 (active),-10.6,-7.11,-2.99
Atp1a3,SID315488388,qiagen single siRNA,1.73,1.63,1.84,-2.76
Atp1a3,SID315488389,qiagen single siRNA,-3.51 (active),-3.85,-3.17,-2.76
Atp1a3,SID315488390,qiagen single siRNA,-3.17 (active),-2.36,-3.98,-2.76
Vmn1r231,SID315487971,ambion single siRNA,-2.79 (active),-2.74,-2.84,-3.71
Vmn1r231,SID315487972,ambion single siRNA,-3.71 (active),-3.3,-4.12,-3.71
Vmn1r231,SID315487973,ambion single siRNA,-6.36 (active),-6.91,-5.82,-3.71
Vmn1r231,SID315487974,qiagen single siRNA,0.0478,-0.489,0.584,-0.513
Vmn1r231,SID315487975,qiagen single siRNA,-4.89 (active),-5.13,-4.66,-0.513
Vmn1r231,SID315487976,qiagen single siRNA,-0.316,-0.0965,-0.536,-0.513
Thrsp,SID315485004,ambion single siRNA,6.35 (active),7.87,4.83,-0.285
Thrsp,SID315485005,ambion single siRNA,-0.285,-0.553,-0.0163,-0.285
Thrsp,SID315485006,ambion single siRNA,-2.97 (active),-3.63,-2.31,-0.285
Thrsp,SID315485007,qiagen single siRNA,2.31 (active),1.36,3.27,0.602
Thrsp,SID315485008,qiagen single siRNA,1.02,-0.195,2.24,0.602
Thrsp,SID315485009,qiagen single siRNA,-0.31,-0.154,-0.466,0.602
Onecut2,SID315488280,ambion single siRNA,-0.248,-0.922,0.425,-0.922
Onecut2,SID315488281,ambion single siRNA,-2.89 (active),-2.51,-3.28,-0.922
Onecut2,SID315488282,ambion single siRNA,-0.534,-0.534,,-0.922
Onecut2,SID315488283,qiagen single siRNA,0.875,-1.47,3.22,1.12
Onecut2,SID315488284,qiagen single siRNA,2.07 (active),1.12,3.03,1.12
Onecut2,SID315488285,qiagen single siRNA,-0.487,-0.487,,1.12
Htra3,SID315486879,ambion single siRNA,-8.12 (active),-8.27,-7.97,-6.04
Htra3,SID315486880,ambion single siRNA,-4.72 (active),-6.02,-3.41,-6.04
Htra3,SID315486881,ambion single siRNA,-5.72 (active),-6.06,-5.38,-6.04
Htra3,SID315486882,qiagen single siRNA,0.933,0.578,1.29,-1.43
Htra3,SID315486883,qiagen single siRNA,-1.76,-1.43,-2.09,-1.43
Htra3,SID315486884,qiagen single siRNA,-8.26 (active),-8.26,,-1.43
Or4c112,SID315488727,ambion single siRNA,-1.46,-0.877,-2.04,-2.13
Or4c112,SID315488728,ambion single siRNA,-3.81 (active),-3.65,-3.97,-2.13
Or4c112,SID315488729,ambion single siRNA,-2.13 (active),-2.13,,-2.13
Or4c112,SID315488730,qiagen single siRNA,1.09,-0.773,2.96,-0.11
Or4c112,SID315488731,qiagen single siRNA,-1.01,-1.91,-0.11,-0.11
Or4c112,SID315488732,qiagen single siRNA,0.491,0.491,,-0.11
Nfkbid,SID315488508,ambion single siRNA,1.73,1.79,1.67,-1.09
Nfkbid,SID315488509,ambion single siRNA,-1.22,-0.769,-1.67,-1.09
Nfkbid,SID315488510,ambion single siRNA,-1.46,-1.42,-1.5,-1.09
Nfkbid,SID315488511,qiagen single siRNA,0.615,0.342,0.889,0.803
Nfkbid,SID315488512,qiagen single siRNA,-0.404,-1.6,0.794,0.803
Nfkbid,SID315488513,qiagen single siRNA,1.23,0.812,1.64,0.803
Wls,SID315486540,ambion single siRNA,-0.924,-1.22,-0.626,-0.561
Wls,SID315486541,ambion single siRNA,-0.561,-0.58,-0.543,-0.561
Wls,SID315486542,ambion single siRNA,0.606,1.4,-0.191,-0.561
Wls,SID315486543,qiagen single siRNA,0.154,-0.67,0.978,-0.67
Wls,SID315486544,qiagen single siRNA,-0.511,-1.14,0.119,-0.67
Wls,SID315486545,qiagen single siRNA,-6.42 (active),-6.42,,-0.67

An excerpt from above, reduced to “p65 translocation z-score, replicate mean”:
Atp1a3 [SID315488385], siRNA vendor or control pool ambion single siRNA: -2.99 (active)
Atp1a3 [SID315488386], siRNA vendor or control pool ambion single siRNA: -0.848
Atp1a3 [SID315488387], siRNA vendor or control pool ambion single siRNA: -8.85 (active)
Atp1a3 [SID315488388], siRNA vendor or control pool qiagen single siRNA: 1.73
Atp1a3 [SID315488389], siRNA vendor or control pool qiagen single siRNA: -3.51 (active)
Atp1a3 [SID315488390], siRNA vendor or control pool qiagen single siRNA: -3.17 (active)
Vmn1r231 [SID315487971], siRNA vendor or control pool ambion single siRNA: -2.79 (active)
Vmn1r231 [SID315487972], siRNA vendor or control pool ambion single siRNA: -3.71 (active)
Vmn1r231 [SID315487973], siRNA vendor or control pool ambion single siRNA: -6.36 (active)
